Results published in PMC4419837, “Purification and characterization of DR_2577 (SlpA) a major S-layer protein from Deinococcus radiodurans” (Frontiers in Microbiology, 2015).
These are yes or no findings as the source states them, for the method shown.

Target: DR_2577 (SlpA), major S-layer protein from Deinococcus radiodurans (Deinococcus radiodurans (endogenous in strain R1, ATCC 13939)) (UniProt Q9RRB6)
Assay: condition: only harsh denaturation (boiling for 10 min or 6 mM tris-2-carboxy-ethylphosphine) before SDS-PAGE; SDS-PAGE; harsh denaturation: Rotiload and boiling for 10 min, or 6 mM tris-2-carboxy-ethylphosphine at room temperature; polyacrylamide/urea gel; both purified

B1: DR_2577 (SlpA), major S-layer protein from Deinococcus radiodurans (natural protein, UniProt Q9RRB6 23-1167, looked up)
chain: APVSAPQVPALTDVPAGHWAKDAIDRLVSRGVILGYPDGTFRGTQNLTRYEAAIIIARLLDQMRDGETPAGMTAEDMTALQNAIQELAADLAALGVRVSDLEANAVSKDDFARLEARIEEVAAAGGEQGATEALQGQIDDLTARVDEYDALRADVDDNASSIAALNDLTVLLNQDILDLQDRVSAVEAAQADFVQRSDFDALGGRVTTVETRVETVNNSLTGRIAALERNAFSVKPSLTIGYSVSRTSRNFDVDRLFPLNADGTVANNAFTSGGIDTDTGAQRRDFGDFGNASDPVVAGAAGLYGFADGVSYTVYFTDGSTATFDGLNPADYKVPTGKVIDTTKGRNGFGFNNLARYKEGSTDIGISLGFDTSGQFSQVTSGTGGSLFSTAGRLQVNQIDLNFGLVTGLPSDAYVDTNGNGKKDDGEATGRGTYLGSGGTAAILRDPAGNVYRPVFFRFKNATTQFSVGNNPVIVTLGQQQKFYFSDYVFDNNYDGRGDGFTVTVDGSNVPVIGAWKPQIKGVYGSRSGLDGTAEAGYGVYYRGVRAQITPVGTLTAGIHYAQEGRDMFGAAQNTTSTPSDVTTYGADLHGKAFGVELHSEYATSRVRPNTANAAVQTSNAFYARVATRKDNLAFDLNTPAAKFGNDTFGVSLYDLNYRKIDAGYNNVAGISEYGYGSYSRTSAQNIAYNPDTGVTAPFANLDRQAYTDANNDGTSDRNADGTVVATNTKIGQMGFGVKAAANLGPVAIGGYYDTSTGANGDNANRMTEAGGSAKVAYSIFSLRGTYNTLDSNRPQIYRDAAGTQIIGDAKVRRYAVQADVTPGLGLFVGAYYRDVNVNGVRSTTDRGLLGRGYLASSFEPGVGNNAYRTGLRCADNNFGTGTRDIDGVGGVLNPAVNLDQSRTATCFTSYGVEAGHAGDNANALVKDLFFRVGYSRVYVPTTATATTGDFSGSVTYGDARYDRKVGVANVRLAGSFSTTNTQLDSRPAGTRGAVGLIVRTDPLENVPFRPQFNGQVGYYTADNRVAAGNYNANATKYGAGVVLNDFLLPQTKIGVRYDGYMAQNRQYTPFDGDGTQGYFSDANNNRRTNLNGVYVEGAYQDLIFSYGTYTLSQKDLNGVEYGSGINNGQPARGQTFKISYKVNF
notes: DR_2577 (SlpA), S-layer protein of Deinococcus radiodurans R1; cysteines at residues 896 and 929; Native protein isolated from the bacterium; It infers that the dimers are held by an intermolecular disulfide bond, and only a computer prediction assigns that bond to Cys929
- binding: no binding
